These are yes or no findings as the source states them, for the method shown. In cells and extracts the contact can be indirect. Some results given as binding are weak or reduced against the parent protein; the word gives no strength.
Tests used:
[1] = target: FUS (mouse (endogenous in mouse brain and mouse primary neurons)) (UniProt P56959); test: co-IP; co-IP with FUS in the nuclear fraction of cultured hippocampal neurons (Supplementary Fig. 8e)
[2] = target: FUS (mouse (endogenous in mouse brain and mouse primary neurons)) (UniProt P56959); test: co-IP; co-IP with FUS in the cytoplasmic fraction of cultured hippocampal neurons (Supplementary Fig. 8e)
[3] = target: FUS (mouse (endogenous in mouse brain and mouse primary neurons)) (UniProt P56959); test: co-IP; IP of endogenous FUS from mouse brain lysate, without RNase A (Brain IP buffer with RNase inhibitor: 25 mM HEPES-KOH pH 7.4, 150 mM NaCl, 5 mM MgCl2, 1 mM EDTA, 1% IGEPAL-CA630); Protein G dynabeads, 4 °C; western blot
[4] = target: FUS (mouse (endogenous in mouse brain and mouse primary neurons)) (UniProt P56959); test: co-IP; IP of endogenous FUS from primary neuron lysate; western blot (Supplementary Fig. 8)
[5] = target: FUS (in neuroblastoma cells) (UniProt P56959); test: co-IP; IP of endogenous FUS from neuroblastoma cell lysate; western blot (Supplementary Fig. 8)
[6] = target: cytoplasmic poly (A)-binding protein PABPC1 (mouse (endogenous in mouse brain and mouse primary neurons)) (UniProt P29341); test: co-IP; IP of endogenous PABPC1 from lysates of control and FUS knockdown (shRNA lentivirus) primary cortical neurons; western blot
[7] = target: FUS (mouse (endogenous in mouse brain and mouse primary neurons)) (UniProt P56959); test: co-IP; IP of endogenous FUS from mouse brain lysate, Brain IP buffer with RNase A throughout the procedure; Protein G dynabeads, 4 °C; western blot

By UniProt entry, the sequences of proteins in these tests, tags left out.
UniProt P56959: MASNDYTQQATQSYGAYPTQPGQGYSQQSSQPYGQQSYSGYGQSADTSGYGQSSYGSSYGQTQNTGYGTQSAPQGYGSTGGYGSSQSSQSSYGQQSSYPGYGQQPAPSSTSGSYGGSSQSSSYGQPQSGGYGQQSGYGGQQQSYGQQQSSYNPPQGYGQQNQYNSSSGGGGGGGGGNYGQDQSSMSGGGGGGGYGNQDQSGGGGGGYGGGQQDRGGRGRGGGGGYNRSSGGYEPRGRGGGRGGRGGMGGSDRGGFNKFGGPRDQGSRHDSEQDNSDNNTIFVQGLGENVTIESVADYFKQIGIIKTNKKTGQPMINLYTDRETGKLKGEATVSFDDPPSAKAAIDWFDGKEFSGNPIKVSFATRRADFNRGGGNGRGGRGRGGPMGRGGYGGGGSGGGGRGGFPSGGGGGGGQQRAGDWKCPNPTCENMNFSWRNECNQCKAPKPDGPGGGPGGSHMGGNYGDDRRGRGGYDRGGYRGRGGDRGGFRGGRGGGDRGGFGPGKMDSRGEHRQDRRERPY
UniProt P29341: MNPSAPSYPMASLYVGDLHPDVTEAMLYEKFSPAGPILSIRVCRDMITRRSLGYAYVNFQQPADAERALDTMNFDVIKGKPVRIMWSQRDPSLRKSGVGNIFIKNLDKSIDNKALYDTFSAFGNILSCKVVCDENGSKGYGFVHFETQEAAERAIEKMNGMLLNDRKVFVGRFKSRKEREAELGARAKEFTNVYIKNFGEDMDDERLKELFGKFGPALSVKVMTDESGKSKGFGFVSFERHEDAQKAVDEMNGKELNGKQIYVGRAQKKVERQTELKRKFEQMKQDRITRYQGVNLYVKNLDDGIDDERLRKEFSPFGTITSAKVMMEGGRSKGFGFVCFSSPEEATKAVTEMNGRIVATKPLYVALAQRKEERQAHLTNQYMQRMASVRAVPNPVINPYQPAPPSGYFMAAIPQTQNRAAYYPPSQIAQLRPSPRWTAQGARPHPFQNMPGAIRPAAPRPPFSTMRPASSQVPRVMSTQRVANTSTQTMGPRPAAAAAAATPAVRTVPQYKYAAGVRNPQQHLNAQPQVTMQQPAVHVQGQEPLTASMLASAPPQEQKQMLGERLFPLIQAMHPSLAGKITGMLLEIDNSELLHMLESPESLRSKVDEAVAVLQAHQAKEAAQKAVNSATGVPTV

Measured: binding

cytoplasmic poly (A)-binding protein PABPC1 (from UniProt P29341 1-636)
binds: [1] | [2] | [3] | [4]

cytoplasmic poly (A)-binding protein PABPC1 (in neuroblastoma cells) (from UniProt P29341 1-636)
binds: [5]

B1: poly (A)-specific ribonuclease PAN2 (protein, UniProt Q8BGF7 1-1200)
chain: MNFEGLDPGLAEFSPAMHSTLDPVLDAHLNPSLLQNVELDPEGVALEALPVQESVHIMEGVYSELHSVVAEVGVPVSVSHFDLHEEMLWVGSHGGHATSFFGPALERYSSFQVNGGDDIRQIQSLENGILFLTKNNLKYMARGGLIIFDYLLDENEDMHSVLLTDNSTLLVGGLQNHVLEIDLNTVQETQKYAVETPGVTIMRQTNRFFFCGHTSGKVSLRDLRSFKVEHEFDAFSGSLSDFDVHGNLLAACGFSSRLTGLACDRFLKVYDLRMMRAITPLQVHVDPAFLRFIPTYTSRLAIISQSGQCQFCEPTGLANPADIFHVNPVGPLLMTFDVSASKQALAFGDSEGCVHLWTDSPEPSFNPYSRETEFALPCLVDSLPPLDWSQDLLPLSLIPVPLTTDALLSDWPAANSAPAPRRAPPVDAEILRTMKKVGFIGYAPNPRTRLRNQIPYRLKESDHEFDNFSQVTESPTGREEEPLHTVSKKYRKVTIKYSKLGLEDFDFKHYNKTLFAGLEPHIPNAYCNCMIQVLYFLEPVRCLIQNHLCQKEFCLACELGFLFHMLDLSRGDPCQGSNFLRAFRTIPEASALGLILADSDEASGKGSLARLIQRWNRFILTQLHQDMQELEVPQAYRGAGGSFCSSGDSIIGQLFSCEMENCSLCRCGSETVRASSTLLFTLSYPEDKTGKNYDFAQVLKRSICLEQNTQAWCDNCEKYQPTIQTRNIRHLPDILVINCEVNSSKEADFWRLQAEVAFKIAVKKYGGEMKSKEFALADRKELRSPEGFLCSSIEELKNVWLPFSIRMKMTKNKGLDVCNWADEHELSSLGAPSQWGPARAEEELGVYVYDLMATVVHILDSRTGGSLVAHIKVGETYHQRKEGVTHQQWYLFNDFLIEPIDKYEAVQFDMNWKVPAILYYVKRNLNSRYNLNIKNPIEASVLLAEASLARKQRKTHTTFIPLMLNEMPQVGDLVGLDAEFVTLNEEEAELRSDGTKSTIKPSQMSVARITCVRGQGPNEGIPFIDDYISTQEQVVDYLTQYSGIKPGDLDAKISSKHLTTLKSTYLKLRFLIDIGVKFVGHGLQKDFRVINLMVPKDQVLDTVYLFHMPRKRMISLRFLAWYFLDLKIQGETHDSIEDARTALQLYRKYLELSKNGTEPESFHKVLKGLYEKGRKMDWKVPEPESQTSPKNAAVFSVLAL
not listed: [1] | [5]
binds: all other assays above

B2: cleavage and polyadenylation-specific factor CPSF6 (in neuroblastoma cells) (protein, UniProt Q6NVF9 1-551)
chain: MADGVDHIDIYADVGEEFNQEAEYGGHDQIDLYDDVISPSANNGDAPEDRDYMDTLPPTVGDDVGKGAAPNVVYTYTGKRIALYIGNLTWWTTDEDLTEAVHSLGVNDILEIKFFENRANGQSKGFALVGVGSEASSKKLMDLLPKRELHGQSPVVTPCNKQFLSQFEMQSRKTTQSGQMSGEGKAGPPGGGSRAAFPQGGRGRGRFPGAVPGGDRFPGPAGPGGPPPPFPAGQTPPRPPLGPPGPPGPPGPPPPGQVLPPPLAGPPNRGDRPPPPVLFPGQPFGQPPLGPLPPGPPPPVPGYGPPPGPPPPQQGPPPPPGPFPPRPPGPLGPPLTLAPPPHLPGPPPGAPPPAPHVNPAFFPPPTNSGMPTSDSRGPPPTDPYGRPPPYDRGDYGPPGREMDTARTPLSEAEFEEIMNRNRAISSSAISRAVSDASAGDYGSAIETLVTAISLIKQSKVSADDRCKVLISSLQDCLHGIESKSYGSGSRRERSRERDHSRSREKSRRHKSRSRDRHDDYYRERSRERERHRDRDRDRDRERDREREYRHR
binds: [5]

B3: poly (A)-specific ribonuclease PAN2 (in neuroblastoma cells) (protein, UniProt Q8BGF7 1-1200)
chain: B1 chain
binds: [5]

B4: cleavage and polyadenylation-specific factor CPSF6 (protein, UniProt Q6NVF9 1-551)
chain: B2 chain
not listed: [5]
binds: all other assays above

Reference: PMC4479014
